From PMC11432204
Results are given in words; binding and its absence hold for the method and conditions named. In cells and extracts the contact can be indirect. Some binding calls cover weakened binding; strength is not graded here.

Chains of the proteins cited; added tags and fusions are not shown.
UniProt Q8BLD9: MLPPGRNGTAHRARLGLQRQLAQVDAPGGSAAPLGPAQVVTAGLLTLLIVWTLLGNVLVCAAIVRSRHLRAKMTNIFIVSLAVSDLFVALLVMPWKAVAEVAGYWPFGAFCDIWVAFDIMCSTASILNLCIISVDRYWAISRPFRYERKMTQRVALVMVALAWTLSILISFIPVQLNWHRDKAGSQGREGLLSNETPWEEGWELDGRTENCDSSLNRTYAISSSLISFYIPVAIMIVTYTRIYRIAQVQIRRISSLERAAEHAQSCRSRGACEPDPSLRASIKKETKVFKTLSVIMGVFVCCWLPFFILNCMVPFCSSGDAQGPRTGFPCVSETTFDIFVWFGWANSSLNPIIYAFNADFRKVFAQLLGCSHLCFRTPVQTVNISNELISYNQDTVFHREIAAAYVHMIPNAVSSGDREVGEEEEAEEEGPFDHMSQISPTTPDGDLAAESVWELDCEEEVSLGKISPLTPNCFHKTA

Target: Dopamine receptor D5 (mouse (endogenous in primary CD4+ T-cells)) (UniProt Q8BLD9)
Test: proximity ligation; in situ PLA on fixed, permeabilised colonic sections of Drd5-/- mice with DSS colitis that had received Drd5+/+ CD4+ T-cells (pre-treated with DMSO, TM6C or TM7C, 4 uM); rabbit anti-CCR9 and mouse anti-DRD5, Duolink In Situ Red kit; mice injected with PBS as control

B1: C-C chemokine receptor 9 (receptor, UniProt Q9WUT7 1-369)
chain: MMPTELTSLIPGMFDDFSYDSTASTDDYMNLNFSSFFCKKNNVRQFASHFLPPLYWLVFIVGTLGNSLVILVYWYCTRVKTMTDMFLLNLAIADLLFLATLPFWAIAAAGQWMFQTFMCKVVNSMYKMNFYSCVLLIMCISVDRYIAIVQAMKAQVWRQKRLLYSKMVCITIWVMAAVLCTPEILYSQVSGESGIATCTMVYPKDKNAKLKSAVLILKVTLGFFLPFMVMAFCYTIIIHTLVQAKKSSKHKALKVTITVLTVFIMSQFPYNSILVVQAVDAYAMFISNCTISTNIDICFQVTQTIAFFHSCLNPVLYVFVGERFRRDLVKTLKNLGCISQAQWVSFTRREGSLKLSSMLLETTSGALSL
Question: With B1 as the binder, how does the binding read?
Answer: binds
